PubChem BioAssay AID1259424 | University of Nebraska Medical Center, 2018

Screen: 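Seek colon cancer survival genes behaving like KSR1, using a six-gene signature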 (primary screen)
Cell system: human HCT116 colon cancer cells
Reagents: siRNA pool against human genes, 50 nM
Measurement: 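Log2 levels of six mRNAs (branched-DNA multiplex), adjusted by two reference genes and the non-targeting median, then scored against the average KSR1 knockdown pattern as Pearson r and euclidean distance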
Direction: mean correlation with KSR1 profile and KSR1 correlation: higher = expression change more like KSR1 knockdown; mean distance from KSR1 profile: higher = expression change less like KSR1 knockdown
Here is one part, drawn at random, of about 14,000 deposited reagents. 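Higher correlation or smaller distance means closer resemblance to KSR1 loss; control wells, including KSR1 knockdowns, recur on many plates.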 Not given: the time to read-out.

| target | mean correlation with KSR1 profile | mean distance from KSR1 profile | KSR1 correlation, replicate 1 | KSR1 correlation, replicate 2 | KSR1 correlation, replicate 3 |
| --- | --- | --- | --- | --- | --- |
| PDE6D (phosphodiesterase 6D) | -0.468 | 2.09 | -0.494 | -0.468 | -0.525 |
| MT-ND4 (mitochondrially encoded NADH dehydrogenase 4) | -0.77 | 3.3 | -0.618 | -0.89 | -0.794 |
| IGF2BP3 (insulin like growth factor 2 mRNA binding protein 3) | 0.251 | 2.21 | 0.0232 | 0.358 | 0.228 |
| TREH (trehalase) | -0.321 | 1.11 | -0.357 | -0.0919 | -0.283 |
| FASTKD1 (FASTK mitochondrial RNA regulator 1) | 0.534 | 1.49 | 0.616 | 0.772 | 0.271 |
| AP4S1 (adaptor related protein complex 4 subunit sigma 1) | -0.583 | 2.84 | -0.539 | -0.558 | -0.593 |
| METTL25 (methyltransferase like 25) | 0.836 | 0.902 | 0.64 | 0.483 | 0.923 |
| GSPT2 (G1 to S phase transition 2) | 0.498 | 2.62 | 0.569 | 0.467 | 0.487 |
| HSD17B4 (hydroxysteroid 17-beta dehydrogenase 4) | 0.0871 | 2.26 | 0.161 | -0.0981 | -0.11 |
| DDX17 (DEAD-box helicase 17) | -0.343 | 1.97 | -0.219 | -0.535 | -0.357 |
| TTLL2 (tubulin tyrosine ligase like 2) | 0.844 | 1.25 | 0.812 | 0.921 | 0.787 |
| LIMS1 (LIM zinc finger domain containing 1) | -0.759 | 2.44 | -0.767 | -0.933 | -0.86 |
| FYN (FYN proto-oncogene, Src family tyrosine kinase) | 0.211 | 1.59 | 0.213 | 0.25 | -0.39 |
| ACOX3 (acyl-CoA oxidase 3, pristanoyl) | 0.107 | 1.14 | 0.325 | 0.275 | -0.00828 |
| ADIPOQ (adiponectin, C1Q and collagen domain containing) | -0.483 | 2.12 | -0.65 | -0.484 | -0.136 |
| FAHD2B (fumarylacetoacetate hydrolase domain containing 2B) | -0.267 | 2.67 | -0.228 | -0.377 | -0.228 |

3 entries already listed, sorted by “KSR1 correlation, replicate 3”, lowest first:
| target | mean correlation with KSR1 profile | mean distance from KSR1 profile | KSR1 correlation, replicate 1 | KSR1 correlation, replicate 2 | KSR1 correlation, replicate 3 |
| --- | --- | --- | --- | --- | --- |
| FAHD2B (fumarylacetoacetate hydrolase domain containing 2B) | -0.267 | 2.67 | -0.228 | -0.377 | -0.228 |
| ADIPOQ (adiponectin, C1Q and collagen domain containing) | -0.483 | 2.12 | -0.65 | -0.484 | -0.136 |
| ACOX3 (acyl-CoA oxidase 3, pristanoyl) | 0.107 | 1.14 | 0.325 | 0.275 | -0.00828 |

Continued:
| target | mean correlation with KSR1 profile | mean distance from KSR1 profile | KSR1 correlation, replicate 1 | KSR1 correlation, replicate 2 | KSR1 correlation, replicate 3 |
| --- | --- | --- | --- | --- | --- |
| ACSBG1 (acyl-CoA synthetase bubblegum family member 1) | -0.366 | 1.53 | -0.462 | 0.106 | -0.481 |
| NLRP3 (NLR family pyrin domain containing 3) | -0.347 | 1.25 | -0.329 | -0.366 | -0.296 |
| TIMM50 (translocase of inner mitochondrial membrane 50) | 0.437 | 1.02 | 0.527 | 0.174 | 0.399 |
| SMARCC2 (SWI/SNF related BAF chromatin remodeling complex subunit C2) | 0.721 | 1.08 | 0.703 | 0.79 | 0.525 |
| CCNF (cyclin F) | -0.248 | 1.97 | -0.343 | -0.252 | -0.288 |
| TNS1 (tensin 1) | 0.935 | 1.33 | 0.929 | 0.854 | 0.796 |
| ORC3 (origin recognition complex subunit 3) | -0.473 | 1.32 | -0.156 | -0.706 | -0.278 |
| EIPR1 (EARP complex and GARP complex interacting protein 1) | -0.575 | 1.74 | -0.539 | -0.392 | -0.601 |
| BEGAIN (brain enriched guanylate kinase associated) | -0.387 | 2.21 | -0.564 | -0.339 | 0.151 |
| UNC5C (unc-5 netrin receptor C) | -0.138 | 2.83 | -0.0385 | -0.302 | -0.25 |
| CHMP1B (charged multivesicular body protein 1B) | -0.476 | 1.92 | -0.406 | -0.6 | -0.584 |
| CDHR5 (cadherin related family member 5) | 0.451 | 1.61 | 0.45 | 0.316 | 0.607 |
| ESYT1 (extended synaptotagmin 1) | -0.00514 | 2.74 | 0.0574 | 0.152 | 0.25 |
| FANCC (FA complementation group C) | -0.458 | 3.21 | -0.374 | -0.413 | -0.528 |
| CAPRIN2 (caprin family member 2) | -0.224 | 1.97 | -0.421 | -0.469 | -0.175 |
| CREBBP (CREB binding lysine acetyltransferase) | -0.324 | 2.89 | 0.444 | -0.417 | -0.361 |
| IKZF5 (IKAROS family zinc finger 5) | -0.374 | 3.01 | -0.204 | -0.529 | -0.501 |
| GPR132 (G protein-coupled receptor 132) | 0.318 | 1.92 | 0.079 | 0.541 | 0.143 |
